Literature values in patent publication US20130251783A1, “LIPOSOMES CONTAINING PERMEATION ENHANCERS FOR ORAL DRUG DELIVERY” (Universitat Heidelberg, priority 2011, published 2013).

What was measured:
[1] = tested on: two different corneal cell lines; conditions: 1-h incubation; cited from earlier work
[2] = tested on: erythrocytes and nasal mucosa; conditions: cited from earlier work
fibroblast cell line = conditions: after 30 min, two different assays; cited from earlier work

**Q.** Which results are given for `CCCCCCCCCCCCCCCC[n+]1ccccc1` [CpCl, cetylpyridinium chloride]?
**A.** Concentration giving a decrease in the cell viability of 50% [1]: around 10 μM; Cytotoxicity (haemolytical activity, protein leaching) [2]: comparable to that of the anionic surfactant sodium dodecyl sulphate; Concentration leading to 50% survival (fibroblast cell line): around 0.19 mM
